In one assay the target is PTPRD ECD (human) (UniProt P23468). Briefly: SPR; Biacore T100; biotinylated receptor ECD or hit protein captured on a streptavidin chip (~100-200 RU), non-biotinylated secreted ligand as analyte in twofold dilutions; HBS-P+ buffer; 1:1 Langmuir model or equilibrium fit; both purified. A general note: Surface plasmon resonance follows binding to a sensor surface in real time, without labels.

Protein sequences, listed by entry. Tags and fused reporters are not part of them. Residues count along the entry.
UniProt P23468, residues 21-1265: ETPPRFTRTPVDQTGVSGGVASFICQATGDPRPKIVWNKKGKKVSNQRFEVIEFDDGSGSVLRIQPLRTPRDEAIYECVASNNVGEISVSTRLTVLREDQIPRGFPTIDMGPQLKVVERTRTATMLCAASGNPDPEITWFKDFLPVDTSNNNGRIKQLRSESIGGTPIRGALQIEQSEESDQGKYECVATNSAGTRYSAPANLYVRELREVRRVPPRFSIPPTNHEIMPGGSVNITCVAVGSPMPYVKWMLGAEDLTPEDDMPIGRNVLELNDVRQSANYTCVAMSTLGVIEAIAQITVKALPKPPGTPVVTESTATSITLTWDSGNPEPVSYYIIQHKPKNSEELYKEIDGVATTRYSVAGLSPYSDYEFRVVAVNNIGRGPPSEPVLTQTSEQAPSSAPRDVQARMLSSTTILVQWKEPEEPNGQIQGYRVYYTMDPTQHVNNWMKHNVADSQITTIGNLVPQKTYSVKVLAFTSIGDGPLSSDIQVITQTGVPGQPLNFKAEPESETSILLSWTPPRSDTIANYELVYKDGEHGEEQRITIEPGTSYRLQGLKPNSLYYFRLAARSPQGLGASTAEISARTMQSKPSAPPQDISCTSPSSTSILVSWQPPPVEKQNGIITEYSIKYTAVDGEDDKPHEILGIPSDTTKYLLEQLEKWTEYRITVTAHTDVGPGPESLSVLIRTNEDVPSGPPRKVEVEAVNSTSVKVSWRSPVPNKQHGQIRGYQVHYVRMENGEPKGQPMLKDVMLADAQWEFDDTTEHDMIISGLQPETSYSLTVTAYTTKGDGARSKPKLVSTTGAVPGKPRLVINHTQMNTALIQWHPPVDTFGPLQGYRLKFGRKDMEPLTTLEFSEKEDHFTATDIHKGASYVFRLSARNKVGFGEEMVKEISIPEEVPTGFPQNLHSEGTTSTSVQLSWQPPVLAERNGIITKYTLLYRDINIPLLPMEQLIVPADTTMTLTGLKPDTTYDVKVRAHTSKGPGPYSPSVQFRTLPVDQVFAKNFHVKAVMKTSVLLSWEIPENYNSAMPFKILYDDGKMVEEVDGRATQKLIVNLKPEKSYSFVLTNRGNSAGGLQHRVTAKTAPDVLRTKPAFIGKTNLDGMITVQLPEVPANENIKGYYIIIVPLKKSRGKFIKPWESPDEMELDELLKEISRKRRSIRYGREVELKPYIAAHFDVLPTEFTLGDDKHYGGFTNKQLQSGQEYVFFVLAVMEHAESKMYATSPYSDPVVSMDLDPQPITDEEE

A further assay deals with T1, PTPRS ECD (human) (UniProt Q13332).
T1 sequence (chain, biotin where captured on the streptavidin chip): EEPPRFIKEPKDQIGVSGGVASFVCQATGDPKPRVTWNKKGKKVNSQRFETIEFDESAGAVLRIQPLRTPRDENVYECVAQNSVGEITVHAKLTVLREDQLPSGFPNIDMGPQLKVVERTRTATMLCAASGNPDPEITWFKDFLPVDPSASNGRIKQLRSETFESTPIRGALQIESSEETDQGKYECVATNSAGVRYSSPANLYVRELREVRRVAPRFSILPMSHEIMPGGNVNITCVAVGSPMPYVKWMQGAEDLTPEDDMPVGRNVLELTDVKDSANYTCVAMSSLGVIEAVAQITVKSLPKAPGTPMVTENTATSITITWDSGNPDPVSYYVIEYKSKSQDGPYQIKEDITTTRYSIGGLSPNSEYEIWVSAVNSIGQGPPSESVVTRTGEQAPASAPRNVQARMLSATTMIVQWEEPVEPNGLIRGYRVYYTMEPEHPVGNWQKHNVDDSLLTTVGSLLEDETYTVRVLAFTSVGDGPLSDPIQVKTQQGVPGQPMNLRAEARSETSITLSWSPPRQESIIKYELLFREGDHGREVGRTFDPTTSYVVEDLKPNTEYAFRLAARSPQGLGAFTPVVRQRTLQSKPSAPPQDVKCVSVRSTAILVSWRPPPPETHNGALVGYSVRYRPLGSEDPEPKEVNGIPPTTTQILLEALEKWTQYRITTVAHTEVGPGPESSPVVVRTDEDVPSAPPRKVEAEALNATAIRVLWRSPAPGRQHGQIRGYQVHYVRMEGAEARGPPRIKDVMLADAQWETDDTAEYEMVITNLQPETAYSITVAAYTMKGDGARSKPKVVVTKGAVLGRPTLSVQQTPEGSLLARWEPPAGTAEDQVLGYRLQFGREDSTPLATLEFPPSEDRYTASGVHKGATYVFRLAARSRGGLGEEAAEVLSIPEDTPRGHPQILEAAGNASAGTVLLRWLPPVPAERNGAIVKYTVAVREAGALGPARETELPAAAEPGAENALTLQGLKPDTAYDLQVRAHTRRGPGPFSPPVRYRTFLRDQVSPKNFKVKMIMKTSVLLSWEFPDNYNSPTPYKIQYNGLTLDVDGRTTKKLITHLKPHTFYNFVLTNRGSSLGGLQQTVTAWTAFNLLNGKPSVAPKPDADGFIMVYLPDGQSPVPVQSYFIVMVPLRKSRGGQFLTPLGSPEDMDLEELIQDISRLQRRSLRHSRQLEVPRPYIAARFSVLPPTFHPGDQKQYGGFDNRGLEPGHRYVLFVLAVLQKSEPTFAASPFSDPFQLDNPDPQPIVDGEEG
Described as above.

Assay [1] addresses T2, PTPRU (CRISPRa-induced on K562 cells) (human (endogenous in K562)) (UniProt Q92729).
T2 sequence: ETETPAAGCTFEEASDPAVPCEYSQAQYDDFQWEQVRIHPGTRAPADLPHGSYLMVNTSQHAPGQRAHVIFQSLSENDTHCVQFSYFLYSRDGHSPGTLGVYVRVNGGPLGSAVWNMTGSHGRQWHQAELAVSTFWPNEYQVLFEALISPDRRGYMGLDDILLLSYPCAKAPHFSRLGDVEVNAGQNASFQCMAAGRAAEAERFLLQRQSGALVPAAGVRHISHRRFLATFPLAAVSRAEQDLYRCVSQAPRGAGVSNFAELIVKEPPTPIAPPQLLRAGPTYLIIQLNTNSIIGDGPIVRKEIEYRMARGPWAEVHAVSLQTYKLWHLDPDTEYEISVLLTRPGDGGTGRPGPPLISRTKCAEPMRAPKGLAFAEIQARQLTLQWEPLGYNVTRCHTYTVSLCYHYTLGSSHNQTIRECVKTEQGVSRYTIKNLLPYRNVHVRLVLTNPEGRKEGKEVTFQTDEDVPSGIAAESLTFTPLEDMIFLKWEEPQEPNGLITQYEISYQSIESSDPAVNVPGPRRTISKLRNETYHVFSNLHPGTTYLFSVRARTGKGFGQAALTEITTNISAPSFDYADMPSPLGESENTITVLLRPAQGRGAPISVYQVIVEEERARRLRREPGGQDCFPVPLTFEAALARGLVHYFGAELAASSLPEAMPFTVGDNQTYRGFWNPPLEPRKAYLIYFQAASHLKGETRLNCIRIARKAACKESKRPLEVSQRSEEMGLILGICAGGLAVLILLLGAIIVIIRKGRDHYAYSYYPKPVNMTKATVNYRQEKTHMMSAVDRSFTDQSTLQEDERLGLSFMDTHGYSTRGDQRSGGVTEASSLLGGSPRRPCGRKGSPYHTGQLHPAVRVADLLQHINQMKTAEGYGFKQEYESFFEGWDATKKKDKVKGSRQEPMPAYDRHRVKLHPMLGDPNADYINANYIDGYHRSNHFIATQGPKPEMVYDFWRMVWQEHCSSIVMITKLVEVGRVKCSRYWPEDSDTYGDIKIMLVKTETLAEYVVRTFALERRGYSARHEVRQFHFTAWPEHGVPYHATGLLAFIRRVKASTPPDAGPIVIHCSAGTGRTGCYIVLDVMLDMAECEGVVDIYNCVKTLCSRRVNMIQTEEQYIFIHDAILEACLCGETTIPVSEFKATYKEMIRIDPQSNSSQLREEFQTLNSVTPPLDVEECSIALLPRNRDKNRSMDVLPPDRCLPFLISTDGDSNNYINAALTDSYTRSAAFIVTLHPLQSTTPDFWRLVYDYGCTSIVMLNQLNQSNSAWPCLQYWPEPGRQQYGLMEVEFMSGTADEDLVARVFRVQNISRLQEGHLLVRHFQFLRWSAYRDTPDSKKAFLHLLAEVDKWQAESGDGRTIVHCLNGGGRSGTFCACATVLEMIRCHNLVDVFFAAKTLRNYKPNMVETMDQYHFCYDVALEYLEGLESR
The assay can be described thus: CRISPRa enrichment screen (magnetic bead selection of cells, deep sequencing of sgRNAs); biotinylated ligand (1 µM) on streptavidin microbeads with K562 sunCas9 cells carrying pooled sgRNA libraries (mini-library, TM1 or TM2+); 4°C, 30 min, MACS buffer; up to three rounds of MACS positive selection; hits called with casTLE and ESP score; only the binder purified.

Results are given in words; binding and its absence hold for the method and conditions named. Some entries that bind do so weakly or less than the wild type.

B1: Osteocrin (ligand, UniProt P61366 28-133)
chain: VDVTTTEAFDSGVIDVQSTPTVREEKSATDLTAKLLLLDELVSLENDVIETKKKRSFSGFGSPLDRLSAGSVDHKGKQRKVVDHPKRRFGIPMDRIGRNRLSNSRG
modifications: biotin (biotinylated in vitro with BirA) where used on beads
With B1, the binding result was “no binding” with PTPRD ECD (human), “no binding” in the assay with PTPRS ECD (human) and “binds” in assay [1].

For the origin of these results see article PMC9578707.
